Measurements reported in PubChem BioAssay AID686943 (Drosophila RNAi Screening Center, 2013).
In all, the deposit lists about 23,000 reagents; below is an unselected part of those that have a named target and a result. 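Extra replicates exist only for a retested subset of genes; insulin dose and duration not given; both raised and lowered dpERK matter.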 Further read-outs or replicates are left out here. No sequences are given here. The record does not give: the amount of reagent, the time to read-out.

Screen: 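Fly genes whose loss alters ERK activation after insulin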 (primary screen)
Cell system: Drosophila S2R+ haemocyte-like cells expressing YFP-tagged ERK (Rolled)
Reagent: long dsRNA against Drosophila genes
Challenge: insulin stimulation versus unstimulated cells; dose and duration not given
Detection: 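Per-plate z-scores of phospho-ERK immunostaining normalised to YFP-tagged ERK, measured with and without insulin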
Reading the numbers: replicate 1, z-score of dpERK with insulin and replicate 2, z-score of dpERK with insulin: higher = more active ERK per ERK-YFP after insulin

target	amplicon	replicate 1, z-score of dpERK with insulin	replicate 2, z-score of dpERK with insulin
Twdlbeta	DRSC07310	-0.44	-1.08
CG43336	DRSC15765	0.02	1
CG14277	DRSC02380	0.33	0.15
rswl	DRSC06923	0.02	-0.19
Ugt37A3	DRSC15937	-0.17	0.18
CG10492	DRSC02064	0.15	-0.21
CG13622	DRSC14624	-0.29	0.52
slf	DRSC00583	-0.03	0.26
DCTN4-p62	DRSC06101	-0.05	1.17
CG32237	DRSC08312	0.19	-0.05
CG32237	DRSC08315	0.47	1.42
CG15394	DRSC00408	0.39	0.58
Alp10	DRSC09749	-0.26	0.22
crb	DRSC16927	-0.23	0.73
MTPAP	DRSC18585	-0.12	0
Fife	DRSC08262	-0.76	-1.38
Fife	DRSC08409	-0.91	-0.44
Fife	DRSC08499	1.23	0.19
mRNA-cap	DRSC19789	2.14	3.13
CARPB	DRSC18437	-0.59	0.14
CARPB	DRSC18438	0.74	0.28
ato	DRSC16904	-1.05	-0.71
ND-B14.7	DRSC04544	-1.35	-3.58
Sarm	DRSC08906	-0.75	-0.16
Sarm	DRSC08907	-0.34	-0.18
Sarm	DRSC10038	0.41	0.07
Sarm	DRSC10039	-0.55	-0.24
Sarm	DRSC10927	1.41	1.15
Sarm	DRSC10929	-0.43	-0.48
Noc1	DRSC10921	0.09	0.26
CG3191	DRSC18530	0.11	-0.15

Targets above whose gene name starts with F or f (3):
target	amplicon	replicate 1, z-score of dpERK with insulin	replicate 2, z-score of dpERK with insulin
Fife	DRSC08262	-0.76	-1.38
Fife	DRSC08409	-0.91	-0.44
Fife	DRSC08499	1.23	0.19

The listing continues.
target	amplicon	replicate 1, z-score of dpERK with insulin	replicate 2, z-score of dpERK with insulin
Cpr65Eb	DRSC11026	0.78	1.45
Gip	DRSC18667	0.13	0.28
SP1029	DRSC16848	1	0.24
sca	DRSC07677	-0.48	-0.21
CG13594	DRSC04229	0.26	0.6
sdt	DRSC17555	-2.07	-0.81
sdt	DRSC17556	-0.26	0.2
sdt	DRSC17860	1.68	0.92
sdt	DRSC17861	0.9	0.36
sdt	DRSC18022	1.07	0.69
sdt	DRSC18025	-1.89	-1.82
sdt	DRSC18026	-3.85	-3.25
sdt	DRSC18027	-0.06	0.27
sdt	DRSC18108	0.02	0.59
CG17982	DRSC18143	0.67	0.53
D19B	DRSC11134	-0.56	-4.41
CG15653	DRSC04244	-1.36	-0.54
NP15.6	DRSC16756	-0.13	0.84
Tom70	DRSC02990	0.68	-1.28
hng2	DRSC16412	0.39	0.07
CG16812	DRSC02519	0.53	0.63
EMC10	DRSC11850	1.26	1.12
fry	DRSC08993	0.45	0.73
fry	DRSC10172	-0.84	-0.98
fry	DRSC10709	-0.63	-0.98
fry	DRSC10712	-0.62	-2.45
